Assay results: PubChem BioAssay AID1671190 (National Center for Advancing Translational Sciences (NCATS), 2021)
Where “and” joins values, the source holds several entries; their conditions need not be identical. Equal entries are not always repeated. The whole screen tested about 580,000 compounds, of which about 6,100 (1.1%) were called active. Inconclusive results, whose numbers are uncertain, are shown with a selection of clear calls. Calls come from the whole dose curve; as a rule, active = well fitted inhibition curve with a large enough effect; inconclusive = small, poorly fitted or top-dose-only effect, or another doubt; inactive = no such curve, though single readings can be large or run the other way. Where the call is inconclusive, the potency comes from a doubtful curve fit.

Protein sequences, listed by entry. Tags and fused reporters are not part of them. Lines headed by an entry give the natural chain unless they say otherwise; changes in a name come on top.
UniProt P18054: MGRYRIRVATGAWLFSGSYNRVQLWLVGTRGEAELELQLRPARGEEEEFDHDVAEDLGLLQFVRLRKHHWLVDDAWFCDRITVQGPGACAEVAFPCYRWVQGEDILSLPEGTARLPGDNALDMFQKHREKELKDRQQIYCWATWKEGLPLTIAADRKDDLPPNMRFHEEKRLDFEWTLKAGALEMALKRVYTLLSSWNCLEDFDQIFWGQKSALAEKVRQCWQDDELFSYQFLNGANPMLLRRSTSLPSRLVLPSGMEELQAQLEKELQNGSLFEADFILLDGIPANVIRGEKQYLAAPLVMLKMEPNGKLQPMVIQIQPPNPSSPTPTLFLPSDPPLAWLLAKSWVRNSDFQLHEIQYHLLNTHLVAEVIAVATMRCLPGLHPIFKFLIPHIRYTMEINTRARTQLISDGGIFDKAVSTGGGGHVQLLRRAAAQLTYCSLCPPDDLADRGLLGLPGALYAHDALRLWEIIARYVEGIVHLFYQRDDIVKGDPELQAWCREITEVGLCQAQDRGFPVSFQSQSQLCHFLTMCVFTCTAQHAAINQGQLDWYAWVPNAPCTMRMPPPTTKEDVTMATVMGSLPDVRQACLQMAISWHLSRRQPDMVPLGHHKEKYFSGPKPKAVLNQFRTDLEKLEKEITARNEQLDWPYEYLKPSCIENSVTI

molecular target: Polyunsaturated fatty acid lipoxygenase ALOX12 (Homo sapiens) (UniProt P18054); test: Primary qHTS assay for inhibitors of human arachidonate 12S-lipoxygenase (ALOX12): Round 2; details: purified 12hLO, xylenol orange hydroperoxide absorbance; activity change, negative = inhibition: at 108 µM (top of the series) unless noted
Procedure, shortened: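 Hydroperoxide product was detected by ferrous iron/xylenol orange as the 573 to 405 nm absorbance ratio. Arachidonic acid at 40 uM (final) was turned over for 30 min at room temperature by 150 nM human 12hLO, pH 7.0 Hepes buffer, after 15 min compound preincubation.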
% is set by controls: 0 for no effect and ±100 for the full control effect; potency is the fitted concentration of half-maximal effect.

SMILES | Potency | activity change, negative = inhibition
Cc1ccc(C)n1-c1cccc(S(=O)(=O)N2CCOCC2)c1 | inconclusive: 50.1 µM [inhibitor, partial curve, poor fit] | –
Cn1nc(C(=O)Nc2cc(Cl)ccc2N2CCCC2)c2ccccc2c1=O | inconclusive: 89.1 µM [inhibitor, partial curve, poor fit] | –
COc1ccc2c(c1)CCc1c(C(=O)Nc3c(C)nn(Cc4ccc(Cl)cc4)c3C)noc1-2 | inconclusive: 112 µM [inhibitor, single point] | –
O=C(C1Cc2ccccc2S1)N(Cc1ccc(C(F)(F)F)cc1)C1CC1 (stereo not given) | inconclusive: 31.6 µM [inhibitor, single point] | –
CCC(=O)Nc1ccc(C(=O)N/N=C(\C)C(C)(C)C)cc1 | – | inactive: 46.5%
CCN(Cc1ccccc1)CC(O)COCc1ccc(OC)c(OC)c1 (stereo not given) | inconclusive: 4.47 µM [inhibitor, full curve] | –
CN(CC[C@H]1CN(C(=O)c2cccs2)CC[C@H]1CC(=O)O)c1ccccc1 | inconclusive: 25.1 µM [inhibitor, full curve] | –
O=C(CCNC(=O)N1CC(=O)Nc2ccccc21)NCCc1ccc(Cl)cc1 | inconclusive: 44.7 µM [inhibitor, partial curve, poor fit] | –
CC1(C)C(N(O)C(=O)Nc2ccc(Cl)cc2)N(c2ccc(Cl)cc2)C(=O)N1CC(=O)NN=CC=Cc1ccc([N+](=O)[O-])o1 (stereo not given) | inconclusive: 0.544 µM [inhibitor, full curve, poor fit] | –
Cc1ccc(S(=O)(=O)N2CCC(=O)N(CCOCc3ccc(F)cc3)CC2)cc1 | inconclusive: 89.1 µM [inhibitor, partial curve, poor fit] | –
COc1cc2c(cc1OC)C(C)N(CCc1ccc(Cl)cc1)CC2 (stereo not given) | inconclusive: 35.5 µM [inhibitor, partial curve, poor fit] | –
O=C(COC(=O)CNC(=O)c1ccc2ccccc2c1)Nc1ncc(Cl)cc1Cl | inconclusive: 8.91 µM [inhibitor, full curve, poor fit] | –
CO[C@H]1C[C@@H]2CC[C@@H](C)[C@@](O)(O2)C(=O)C(=O)N2CCCC[C@@H]2C(=O)O[C@H]([C@@H](C)C[C@@H]2CC[C@H](O)[C@H](OC)C2)CC(=O)[C@H](C)C=C(C)[C@@H](O)[C@@H](OC)C(=O)[C@H](C)C[C@H](C)C=CC=CC=C1C | inconclusive: 6.85 µM [inhibitor, partial curve] | –
COc1ccc(NC(=S)N(Cc2cccc(Br)c2)CC2CCC(C(=O)O)CC2)cc1 (stereo not given) | inconclusive: 56.2 µM [inhibitor, partial curve, poor fit] | –
CC(C)N1CCc2c(sc(NC(=O)C3CCCCC3)c2C(N)=O)C1 | inconclusive: 112 µM [inhibitor, single point] | –
CCOc1ccc(C(C)=O)cc1CN(C)CC(=O)Nc1ccccc1Cl | inconclusive: 0.316 µM [inhibitor, full curve, poor fit] | –
CCN1C[C@@H]2[C@@H]3C(=O)N(Cc4ccccc4)C(=O)[C@@H]3[C@](Cc3ccccc3)(C1=O)N2C(=O)c1ccc(Br)cc1 | inconclusive: 44.7 µM [inhibitor, partial curve] | –
O=C(O)c1ccc2c(c1)CCCN2 | inconclusive: 112 µM [inhibitor, single point] | –
COC(=O)C1CN(C2CCCC2)CCS(=O)(=O)N1Cc1cn(Cc2ccc(Cl)cc2)nn1 (stereo not given) | inconclusive: 17.8 µM [inhibitor, full curve, poor fit] | –
OC[C@@H]1CN(CCN2CCOCC2)C[C@H](n2cnc3c(N4CCOCC4)ncnc32)O1 | inconclusive: 100 µM [inhibitor, single point] | –

SMILES | Potency | activity change, negative = inhibition
N#CCCn1cc(C(=O)Nc2ccc(C(=O)O)cc2)c(-c2cccc(Br)c2)n1 | inconclusive: 126 µM [inhibitor, single point] | –
CCN(c1ccc(-c2csc(-c3ccsc3)n2)cc1)S(C)(=O)=O | inconclusive: 126 µM [inhibitor, partial curve, poor fit] | –
O=C(COC(=O)/C=C/c1ccc(OC(F)F)cc1)NC1CCCC1 | – | inactive: 40.2%
Nc1ccc(/C=C/c2ccc3ncccc3c2)cc1 | – | inactive: 0%
COC(=O)c1ccc(/C=N/OCc2ccc(Cl)c(Cl)c2)cc1 | inconclusive: 44.7 µM [inhibitor, partial curve, poor fit] | –
CCC(=O)OCC(=O)Nc1ccc([N+](=O)[O-])cc1OC | inconclusive: 39.8 µM [inhibitor, partial curve, poor fit] | –
O=C(O)/C=C/c1ccc([N+](=O)[O-])cc1 | – | inactive: 57.6%
O=C1C=C(c2ccccc2)C(=O)N1Nc1ccccc1 | inconclusive: 15.8 µM [inhibitor, partial curve, poor fit] | –
CN(CC(=O)Nc1ccc(Nc2ccccc2)cc1)S(=O)(=O)c1ccccc1 | inconclusive: 126 µM [inhibitor, partial curve, poor fit] | –
Cc1[nH]c2ccccc2c1C(=O)C(C)Sc1nnnn1C1CC1 (stereo not given) | inconclusive: 100 µM [inhibitor, partial curve, poor fit] | –
C#Cc1ccc([C@H]2C=C(C(=O)O)O[C@@H](OCCCCO)C2)cc1 | inconclusive: 28.2 µM [inhibitor, partial curve, poor fit] | –
N#C/C(=C\Nc1ccc(C(N)=O)cc1)c1nc(C2CC2)cs1 | inconclusive: 50.1 µM [inhibitor, partial curve, poor fit] | –
Cc1ccc2nc(N3C(=O)C(O)=C(C(=O)c4ccc(C)o4)C3c3cccc(O)c3)sc2c1 (stereo not given) | active: 12.6 µM and inconclusive: 39.8 µM [inhibitor, partial curve, poor fit] | –
COc1cccc(/C=N/NC(=O)C[n+]2ccccc2)c1O | – | inactive: 1.13%
COc1ccc(NS(=O)(=O)c2ccc(NC(=S)NC(=O)CC(C)C)cc2)cc1 | inconclusive: 35.5 µM [inhibitor, single point] | –
COc1ccc(CCN2CN(S(=O)(=O)c3ccc(C)cc3)c3nc4ccccc4nc32)cc1OC | inconclusive: 5.62 µM [inhibitor, full curve, poor fit] | –
CN(C1CCCCCC1)S(=O)(=O)c1ccc2oc(=O)ccc2c1 | inconclusive: 50.1 µM [inhibitor, partial curve, poor fit] | –
CCOC(=O)c1ccc(S(=O)(=O)Nc2cc(S(=O)(=O)N3CCOCC3)ccc2O)cc1 | inconclusive: 0.316 µM [inhibitor, full curve, poor fit] | –
CCOC(=O)N1CCN(C(=O)Cn2ncc3ccccc32)CC1 | – | inactive: -2.68%
COc1cccc(Cn2c(=O)c(-c3cccs3)nc3cnc(N4CCN(C)CC4)nc32)c1 | inconclusive: 100 µM [inhibitor, single point] | –

SMILES | Potency | activity change, negative = inhibition
CCOC(=O)Oc1ccc2c(=O)c(Oc3ccc(CC)cc3)c(C(F)(F)F)oc2c1 | – | inactive: 1.88%
Cn1c(SCC(=O)Nc2ccc(Br)cc2F)nc2c(=O)[nH]cnc21 | – | inactive: 39%
O=C(CNCC1CCCO1)Nc1ccccc1N1CCOCC1 (stereo not given) | inconclusive: 0.251 µM [inhibitor, full curve, poor fit] | –
CC(C)(C)OCC(O)CN(CCO)CC(O)Cn1ccc2ccccc21 (stereo not given) | inconclusive: 7.08 µM [inhibitor, full curve, poor fit] | –
Cc1ccccc1NS(=O)(=O)c1ccc(OCC(=O)NCC2CCCO2)cc1 (stereo not given) | – | inactive: 0%
CCN(CC)c1ccc(NC(=O)CN2CCN(CC(=O)Nc3ccccc3F)CC2)cc1 | inconclusive: 8.91 µM [inhibitor, partial curve, poor fit] | –
Cc1ccccc1N1CC(C(=O)Nc2nnc(SCCC3OCCO3)s2)CC1=O (stereo not given) | inconclusive: 15.8 µM [inhibitor, full curve, poor fit] | –
CC1=C(C(=O)OCc2ccc3c(c2)OCO3)C(c2ccccc2)NC(=O)N1 (stereo not given) | – | inactive: -38.6%
c1coc(-c2ccn[nH]2)c1 | inconclusive: 1.58 µM [inhibitor, full curve] | –
N#Cc1ccc(C(=O)N2CCCN(CCc3ccccc3)c3ccccc32)cc1 | inconclusive: 39.8 µM [inhibitor, full curve, poor fit] | –
CC1=C(C(=O)N2CCOCC2)CC(CC(=O)NC(c2ccccc2)c2ccccc2)C(=O)N1Cc1ccc(C(C)(C)C)cc1 (stereo not given) | inconclusive: 112 µM [inhibitor, single point] | –
CC(CN1CCN(C)CC1)OC(=O)c1cccc(F)c1 (stereo not given) | inconclusive: 39.8 µM [inhibitor, partial curve] | –
Cc1ccc(-n2cccc2C=O)c(C)c1 | inconclusive: 2.51 µM [inhibitor, full curve, poor fit] | –
Cc1sc(NC(=O)C2CCCC2)c(C#N)c1C | inconclusive: 39.8 µM [inhibitor, partial curve] | –
Cc1cccc(C)c1NC(=O)C1C2C=CC(C2)C1C(=O)O (stereo not given) | – | inactive: 16.1%
Cc1ccc(C)c(NC(=O)N2CCc3cc(S(=O)(=O)N4CCC(C)CC4)ccc32)c1 | inconclusive: 22.4 µM [inhibitor, partial curve, poor fit] | –
COCCn1c(C)cnc1CCNC(=O)Cc1cccc(F)c1 | – | inactive: 36.2%
C/C(CCc1oc2c(Br)cc(Br)cc2c1-c1ccc(C)o1)=N\O | inconclusive: 7.94 µM [inhibitor, full curve] | –
CCc1ccc(NS(=O)(=O)c2ccc(C)c(C(=O)N3CCOCC3)c2)cc1 | inconclusive: 50.1 µM [inhibitor, partial curve, poor fit] | –
CCn1c(C)c(P(=O)(N2CCOCC2)N2CCOCC2)c2ccccc21 | – | inactive: -9.31%

4 entries drawn at random from those above:
SMILES | Potency | activity change, negative = inhibition
C/C(CCc1oc2c(Br)cc(Br)cc2c1-c1ccc(C)o1)=N\O | inconclusive: 7.94 µM [inhibitor, full curve] | –
Cc1ccc(C)c(NC(=O)N2CCc3cc(S(=O)(=O)N4CCC(C)CC4)ccc32)c1 | inconclusive: 22.4 µM [inhibitor, partial curve, poor fit] | –
CC(CN1CCN(C)CC1)OC(=O)c1cccc(F)c1 (stereo not given) | inconclusive: 39.8 µM [inhibitor, partial curve] | –
c1coc(-c2ccn[nH]2)c1 | inconclusive: 1.58 µM [inhibitor, full curve] | –
